From patent publication US20220041753A1 (H LEE MOFFITT CANCER CENTER AND RESEARCH INSTITUTE, published 2022)
No constants are given. Whether binding was seen depends on the method and setting. Some entries that bind do so weakly or less than the wild type.

Target: T1, ZNRF3 ECD (UniProt Q9ULT6 56-219, limits assumed)
T1 construct: extracellular domain; also called ZNRF3 extracellular domain; fluorescently labeled ZNRF3 ECDs
T1 sequence (looked up): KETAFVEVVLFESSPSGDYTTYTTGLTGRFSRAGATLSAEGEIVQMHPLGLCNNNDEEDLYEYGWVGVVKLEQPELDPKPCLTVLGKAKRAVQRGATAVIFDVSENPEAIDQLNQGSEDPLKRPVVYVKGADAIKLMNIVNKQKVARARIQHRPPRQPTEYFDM
Experiment: flow cytometry, scFv displayed on yeast, fluorescently labeled ZNRF3 ECD

B1: ZNRF3-specific scFv "Z6" (scFv)
scFv: ASQVQLVQSGAEVKNPGASVKVSCKASGYAFTSYGISWVRQAPGQGLEWMGWISAYTRNTNYAQKFQGRVTLTTDTSTSTAYMELRSLRSDDTAIYYCARDARYSLGVGAFDVWGQGTMVTVSSGILGSGGGGSGGGGSGGGGSETTLTQSPAFMSATPGDKVSISCKASRDIDDDLNWYQQKPGEAAISIIQEATTLVPGIPPRFSGSGYGTDFTLTINNIESEDAAYYFCLQHDDVPYTFGQGTKLEIKSGIL
notes: the display fusion is not described; also called ZNRF3-specific single-chain antibody variable fragment (scFv)
  binding: binds
